Measured values taken from the supplement of paper PMC8612539.
In brackets after ≈: the same amount, converted by molar mass. Further values from the same series stand in other lists.

Columns and labels:
Pasteurella multocida = assay: minimum inhibitory concentration (MIC)
Procedure: (§1)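 Broth microdilution MIC (Sensititre BOPO7F bovine plate, CLSI methods) of 19 antimicrobials against field isolates of P. multocida, M. haemolytica, H. somni (deep nasopharyngeal swabs) and E. coli, Enterococcus spp. (rectal swabs) from weaned dairy heifers. Incubation 16-24 h at 35 C. MIC is the lowest concentration preventing visible growth. Values with <= or > lie at the tested range limits. Trimethoprim-sulfamethoxazole is given as the trimethoprim component of a 1:19 mixture.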

Mannheimia haemolytica = assay: minimum inhibitory concentration (MIC)
Procedure: as §1

NC[C@@H]1O[C@H](O[C@H]2[C@@H](O)[C@H](O[C@@H]3[C@@H](O)[C@H](N)C[C@H](N)[C@H]3O[C@H]3O[C@H](CN)[C@@H](O)[C@H](O)[C@H]3N)O[C@@H]2CO)[C@H](N)[C@@H](O)[C@@H]1O [Neomycin]
minimum inhibitory concentration [µg/mL]
Conditions	Mannheimia haemolytica	Pasteurella multocida
isolate (source animal id): 3	> 32	–
isolate (source animal id): 30	–	> 32
isolate (source animal id): 34	–	> 32
isolate (source animal id): 36	–	> 32
isolate (source animal id): 37	–	> 32
isolate (source animal id): 46	–	> 32
isolate (source animal id): 48	–	> 32
isolate (source animal id): 49	–	> 32
isolate (source animal id): 54	–	> 32
isolate (source animal id): 55	–	> 32
isolate (source animal id): 58	–	> 32
isolate (source animal id): 60	> 32	> 32
isolate (source animal id): 61	> 32	> 32
isolate (source animal id): 63	–	> 32
isolate (source animal id): 64	32 (≈ 52.1 µM)	> 32
isolate (source animal id): 65	> 32	> 32
isolate (source animal id): 66	> 32	> 32
isolate (source animal id): 67	> 32	> 32
isolate (source animal id): 68	32 (≈ 52.1 µM)	–
isolate (source animal id): 69	–	> 32
isolate (source animal id): 70	> 32	–
isolate (source animal id): 72	> 32	–
isolate (source animal id): 73	–	> 32
isolate (source animal id): 74	> 32	–
isolate (source animal id): 75	–	> 32
isolate (source animal id): 76	32 (≈ 52.1 µM)	> 32
isolate (source animal id): 77	–	> 32
isolate (source animal id): 78	–	> 32
isolate (source animal id): 80	> 32	> 32
isolate (source animal id): 82	> 32	> 32
isolate (source animal id): 83	8 (≈ 13 µM)	> 32
isolate (source animal id): 84	> 32	–
isolate (source animal id): 85	> 32	–
isolate (source animal id): 86	> 32	–
isolate (source animal id): 87	> 32	–
isolate (source animal id): 88	–	> 32
isolate (source animal id): 92	–	> 32
isolate (source animal id): 94	–	> 32
isolate (source animal id): 318	–	> 32
isolate (source animal id): 319	–	> 32
isolate (source animal id): 320	–	> 32
isolate (source animal id): 321	–	> 32
isolate (source animal id): 322	–	> 32
isolate (source animal id): 324	–	> 32
isolate (source animal id): 325	–	> 32
isolate (source animal id): 328	–	> 32
isolate (source animal id): 330	–	> 32
isolate (source animal id): 331	–	32 (≈ 52.1 µM)
isolate (source animal id): 333	–	> 32
isolate (source animal id): 336	–	> 32
isolate (source animal id): 337	–	> 32
isolate (source animal id): 339	–	> 32
isolate (source animal id): 340	–	> 32
isolate (source animal id): 341	–	> 32

CS(=O)(=O)c1ccc([C@@H](O)[C@@H](CF)NC(=O)C(Cl)Cl)cc1 [Florfenicol]
minimum inhibitory concentration [µg/mL]
Conditions	Mannheimia haemolytica	Pasteurella multocida
isolate (source animal id): 3	1 (≈ 2.79 µM)	–
isolate (source animal id): 30	–	> 8
isolate (source animal id): 34	–	8 (≈ 22.3 µM)
isolate (source animal id): 36	–	8 (≈ 22.3 µM)
isolate (source animal id): 37	–	8 (≈ 22.3 µM)
isolate (source animal id): 46	–	0.5 (≈ 1.4 µM)
isolate (source animal id): 48	–	> 8
isolate (source animal id): 49	–	8 (≈ 22.3 µM)
isolate (source animal id): 54	–	8 (≈ 22.3 µM)
isolate (source animal id): 55	–	8 (≈ 22.3 µM)
isolate (source animal id): 58	–	4 (≈ 11.2 µM)
isolate (source animal id): 60	2 (≈ 5.58 µM)	> 8
isolate (source animal id): 61	> 8	> 8
isolate (source animal id): 63	–	8 (≈ 22.3 µM)
isolate (source animal id): 64	2 (≈ 5.58 µM)	4 (≈ 11.2 µM)
isolate (source animal id): 65	> 8	> 8
isolate (source animal id): 66	2 (≈ 5.58 µM)	8 (≈ 22.3 µM)
isolate (source animal id): 67	> 8	8 (≈ 22.3 µM)
isolate (source animal id): 68	2 (≈ 5.58 µM)	–
isolate (source animal id): 69	–	> 8
isolate (source animal id): 70	> 8	–
isolate (source animal id): 72	2 (≈ 5.58 µM)	–
isolate (source animal id): 73	–	8 (≈ 22.3 µM)
isolate (source animal id): 74	> 8	–
isolate (source animal id): 75	–	8 (≈ 22.3 µM)
isolate (source animal id): 76	1 (≈ 2.79 µM)	8 (≈ 22.3 µM)
isolate (source animal id): 77	–	0.5 (≈ 1.4 µM)
isolate (source animal id): 78	–	8 (≈ 22.3 µM)
isolate (source animal id): 80	2 (≈ 5.58 µM)	8 (≈ 22.3 µM)
isolate (source animal id): 82	> 8	8 (≈ 22.3 µM)
isolate (source animal id): 83	0.5 (≈ 1.4 µM)	0.5 (≈ 1.4 µM)
isolate (source animal id): 84	> 8	–
isolate (source animal id): 85	2 (≈ 5.58 µM)	–
isolate (source animal id): 86	2 (≈ 5.58 µM)	–
isolate (source animal id): 87	2 (≈ 5.58 µM)	–
isolate (source animal id): 88	–	4 (≈ 11.2 µM)
isolate (source animal id): 92	–	0.5 (≈ 1.4 µM)
isolate (source animal id): 94	–	4 (≈ 11.2 µM)
isolate (source animal id): 318	–	0.5 (≈ 1.4 µM)
isolate (source animal id): 319	–	0.5 (≈ 1.4 µM)
isolate (source animal id): 320	–	8 (≈ 22.3 µM)
isolate (source animal id): 321	–	> 8
isolate (source animal id): 322	–	8 (≈ 22.3 µM)
isolate (source animal id): 324	–	8 (≈ 22.3 µM)
isolate (source animal id): 325	–	8 (≈ 22.3 µM)
isolate (source animal id): 328	–	> 8
isolate (source animal id): 330	–	8 (≈ 22.3 µM)
isolate (source animal id): 331	–	≤ 0.25
isolate (source animal id): 333	–	1 (≈ 2.79 µM)
isolate (source animal id): 336	–	0.5 (≈ 1.4 µM)
isolate (source animal id): 337	–	> 8
isolate (source animal id): 339	–	8 (≈ 22.3 µM)
isolate (source animal id): 340	–	> 8
isolate (source animal id): 341	–	0.5 (≈ 1.4 µM)

C=C[C@]1(C)C[C@@H](OC(=O)CSCCN(CC)CC)[C@]2(C)[C@H](C)CC[C@]3(CCC(=O)[C@H]32)[C@@H](C)[C@@H]1O [Tiamulin]
minimum inhibitory concentration [µg/mL]
Conditions	Mannheimia haemolytica	Pasteurella multocida
isolate (source animal id): 3	8 (≈ 16.2 µM)	–
isolate (source animal id): 30	–	16 (≈ 32.4 µM)
isolate (source animal id): 34	–	16 (≈ 32.4 µM)
isolate (source animal id): 36	–	16 (≈ 32.4 µM)
isolate (source animal id): 37	–	16 (≈ 32.4 µM)
isolate (source animal id): 46	–	16 (≈ 32.4 µM)
isolate (source animal id): 48	–	16 (≈ 32.4 µM)
isolate (source animal id): 49	–	32 (≈ 64.8 µM)
isolate (source animal id): 54	–	32 (≈ 64.8 µM)
isolate (source animal id): 55	–	32 (≈ 64.8 µM)
isolate (source animal id): 58	–	16 (≈ 32.4 µM)
isolate (source animal id): 60	32 (≈ 64.8 µM)	32 (≈ 64.8 µM)
isolate (source animal id): 61	8 (≈ 16.2 µM)	32 (≈ 64.8 µM)
isolate (source animal id): 63	–	32 (≈ 64.8 µM)
isolate (source animal id): 64	8 (≈ 16.2 µM)	16 (≈ 32.4 µM)
isolate (source animal id): 65	8 (≈ 16.2 µM)	32 (≈ 64.8 µM)
isolate (source animal id): 66	16 (≈ 32.4 µM)	32 (≈ 64.8 µM)
isolate (source animal id): 67	8 (≈ 16.2 µM)	32 (≈ 64.8 µM)
isolate (source animal id): 68	8 (≈ 16.2 µM)	–
isolate (source animal id): 69	–	32 (≈ 64.8 µM)
isolate (source animal id): 70	8 (≈ 16.2 µM)	–
isolate (source animal id): 72	8 (≈ 16.2 µM)	–
isolate (source animal id): 73	–	32 (≈ 64.8 µM)
isolate (source animal id): 74	8 (≈ 16.2 µM)	–
isolate (source animal id): 75	–	32 (≈ 64.8 µM)
isolate (source animal id): 76	8 (≈ 16.2 µM)	32 (≈ 64.8 µM)
isolate (source animal id): 77	–	16 (≈ 32.4 µM)
isolate (source animal id): 78	–	32 (≈ 64.8 µM)
isolate (source animal id): 80	16 (≈ 32.4 µM)	32 (≈ 64.8 µM)
isolate (source animal id): 82	8 (≈ 16.2 µM)	32 (≈ 64.8 µM)
isolate (source animal id): 83	16 (≈ 32.4 µM)	32 (≈ 64.8 µM)
isolate (source animal id): 84	32 (≈ 64.8 µM)	–
isolate (source animal id): 85	16 (≈ 32.4 µM)	–
isolate (source animal id): 86	16 (≈ 32.4 µM)	–
isolate (source animal id): 87	16 (≈ 32.4 µM)	–
isolate (source animal id): 88	–	16 (≈ 32.4 µM)
isolate (source animal id): 92	–	32 (≈ 64.8 µM)
isolate (source animal id): 94	–	32 (≈ 64.8 µM)
isolate (source animal id): 318	–	32 (≈ 64.8 µM)
isolate (source animal id): 319	–	32 (≈ 64.8 µM)
isolate (source animal id): 320	–	> 32
isolate (source animal id): 321	–	32 (≈ 64.8 µM)
isolate (source animal id): 322	–	32 (≈ 64.8 µM)
isolate (source animal id): 324	–	32 (≈ 64.8 µM)
isolate (source animal id): 325	–	32 (≈ 64.8 µM)
isolate (source animal id): 328	–	32 (≈ 64.8 µM)
isolate (source animal id): 330	–	32 (≈ 64.8 µM)
isolate (source animal id): 331	–	32 (≈ 64.8 µM)
isolate (source animal id): 333	–	32 (≈ 64.8 µM)
isolate (source animal id): 336	–	> 32
isolate (source animal id): 337	–	16 (≈ 32.4 µM)
isolate (source animal id): 339	–	32 (≈ 64.8 µM)
isolate (source animal id): 340	–	32 (≈ 64.8 µM)
isolate (source animal id): 341	–	> 32
